{"sequences": {"note": "By UniProt entry, the sequences of proteins in these tests, tags left out. Where a name states a change or a piece, a line headed by the entry shows the natural chain unless it says otherwise. Residues count along the entry.", "UniProt P04083": "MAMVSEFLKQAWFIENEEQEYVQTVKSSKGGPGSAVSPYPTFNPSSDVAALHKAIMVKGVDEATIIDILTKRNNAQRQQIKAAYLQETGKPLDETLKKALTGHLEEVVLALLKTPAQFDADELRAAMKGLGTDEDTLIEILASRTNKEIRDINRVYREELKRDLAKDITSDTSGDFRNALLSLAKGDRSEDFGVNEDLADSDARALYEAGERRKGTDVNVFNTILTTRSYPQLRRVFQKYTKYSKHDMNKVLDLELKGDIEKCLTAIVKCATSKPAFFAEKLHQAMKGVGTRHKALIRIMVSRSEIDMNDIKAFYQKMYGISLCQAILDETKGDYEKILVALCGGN", "UniProt Q8NBP7, residues 31-692": "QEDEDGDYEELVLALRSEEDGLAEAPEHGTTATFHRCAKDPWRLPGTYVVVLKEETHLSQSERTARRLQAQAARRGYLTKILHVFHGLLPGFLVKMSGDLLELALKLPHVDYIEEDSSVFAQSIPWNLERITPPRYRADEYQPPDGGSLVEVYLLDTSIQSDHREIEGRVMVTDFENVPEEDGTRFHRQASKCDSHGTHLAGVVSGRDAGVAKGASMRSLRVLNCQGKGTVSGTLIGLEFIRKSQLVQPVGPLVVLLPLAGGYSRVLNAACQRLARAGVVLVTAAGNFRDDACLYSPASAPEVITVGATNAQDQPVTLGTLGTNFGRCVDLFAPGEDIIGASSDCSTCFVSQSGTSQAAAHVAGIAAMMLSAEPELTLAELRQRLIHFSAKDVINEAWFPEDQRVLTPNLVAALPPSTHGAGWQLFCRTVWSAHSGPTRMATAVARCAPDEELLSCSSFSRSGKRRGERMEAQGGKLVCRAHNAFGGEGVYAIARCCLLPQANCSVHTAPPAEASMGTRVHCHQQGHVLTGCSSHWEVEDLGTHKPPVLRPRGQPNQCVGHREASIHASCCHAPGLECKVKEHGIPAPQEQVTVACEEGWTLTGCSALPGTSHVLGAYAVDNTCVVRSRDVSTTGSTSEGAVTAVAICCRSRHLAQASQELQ"}, "source": "patent US20110118181A1", "biological_target": "AnxA2 SW49-61 (AnxA2 aa 49-61 replaced by AnxA1 aa 58-70), HA-tagged (human) (UniProt P04083)", "test": "Far Western blot of HEK293 lysates (49-61 swap: reduced)", "note": "These are yes or no findings as the source states them, for the method shown. Binding calls can cover weak binding; strength is not graded here.", "data": [{"substance": "PCSK9-V5 (full-length human PCSK9 with C-terminal V5 tag) (from UniProt Q8NBP7 31-692) (enzyme)", "values": [{"measurement": "binding", "value": "binds"}]}]}
